# Experimental data taken from the supplement of paper PMC4604168 (melanoma cell lines).
# Some of the results follow. Single values are uncertain, as repeats are few or missing.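 The apoptosis fraction was the count of cleaved-PARP antibody-stained nuclei relative to all DNA-stained nuclei, imaged in 1,536-well plates. Screening doses were set so most cells survived, and baseline and induced cleaved-PARP levels vary greatly across cell lines.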
# Experiments:
# Assay in all cases: cleaved PARP positive nuclei fraction relative to DMSO control; melanoma cells; higher = more apoptosis
# Settings in all cases: library dose: low library concentration; 72 h
# 501Mel = system: 501Mel
# A101D = system: A101D
# A2058 = system: A2058
# A375 = system: A375
# C32 = system: C32
# CBRC008 = system: CBRC008 (line from a melanoma biopsy)
# CBRC013 = system: CBRC013 (line from a melanoma biopsy)
# CBRC014 = system: CBRC014 (line from a melanoma biopsy)
# CBRC016 = system: CBRC016 (line from a melanoma biopsy)
# CBRC017 = system: CBRC017 (line from a melanoma biopsy)
# COLO792 = system: COLO792
# COLO800 = system: COLO800
# COLO829 = system: COLO829
# G361 = system: G361
# IPC-298 = system: IPC-298
# IST-MEL1 = system: IST-MEL1
# LB2518-MEL = system: LB2518-MEL
# LOXIMVI = system: LOXIMVI
# MEL-HO = system: MEL-HO
# CBRC034 = system: CBRC034 (line from a melanoma biopsy)
Compound,cleaved PARP positive nuclei fraction (501Mel) [%],cleaved PARP positive nuclei fraction (A101D) [%],cleaved PARP positive nuclei fraction (A2058) [%],cleaved PARP positive nuclei fraction (A375) [%],cleaved PARP positive nuclei fraction (C32) [%],cleaved PARP positive nuclei fraction (CBRC008) [%],cleaved PARP positive nuclei fraction (CBRC013) [%],cleaved PARP positive nuclei fraction (CBRC014) [%],cleaved PARP positive nuclei fraction (CBRC016) [%],cleaved PARP positive nuclei fraction (CBRC017) [%],cleaved PARP positive nuclei fraction (COLO792) [%],cleaved PARP positive nuclei fraction (COLO800) [%],cleaved PARP positive nuclei fraction (COLO829) [%],cleaved PARP positive nuclei fraction (G361) [%],cleaved PARP positive nuclei fraction (IPC-298) [%],cleaved PARP positive nuclei fraction (IST-MEL1) [%],cleaved PARP positive nuclei fraction (LB2518-MEL) [%],cleaved PARP positive nuclei fraction (LOXIMVI) [%],cleaved PARP positive nuclei fraction (MEL-HO) [%],cleaved PARP positive nuclei fraction (CBRC034) [%]
"Nc1nc(F)nc2c1ncn2[C@@H]1O[C@H](CO)[C@@H](O)[C@@H]1O [fludarabine] + C=CCn1c(=O)c2cnc(Nc3ccc(N4CCN(C)CC4)cc3)nc2n1-c1cccc(C(C)(C)O)n1 [MK1775] (first compound 0.2 µM, partner dose 0.02 µM)",2880,93.7,117,9460,134,88.5,530,105,27.5,102,30.1,167,76.5,89.3,195,40,110,37.6,60.4,–
"Nc1nc(F)nc2c1ncn2[C@@H]1O[C@H](CO)[C@@H](O)[C@@H]1O [fludarabine] + C=CCNC1=C2C[C@@H](C)C[C@H](OC)[C@H](O)[C@@H](C)/C=C(\C)[C@H](OC(N)=O)[C@@H](OC)/C=C\C=C(/C)C(=O)NC(=CC1=O)C2=O [Tanespimycin] (first compound 0.2 µM, partner dose 0.002 µM)",14500,66.7,90.3,4410,41.8,92.6,–,111,69.5,201,103,76,104,172,93.6,22.5,67.3,90,88.2,33.8
"C=C(c1ccc(C(=O)O)cc1)c1cc2c(cc1C)C(C)(C)CCC2(C)C [Bexarotene] + Nc1nc(F)nc2c1ncn2[C@@H]1O[C@H](CO)[C@@H](O)[C@@H]1O [fludarabine] (first compound 2 µM, partner dose 0.2 µM)",2530,100,110,5720,76.1,86.6,–,110,217,130,167,76.2,71.1,18.2,97.4,266,107,103,189,34.5
"Nc1nc(F)nc2c1ncn2[C@@H]1O[C@H](CO)[C@@H](O)[C@@H]1O [fludarabine] + Cn1c(Nc2ccc(C(F)(F)F)cc2)nc2cc(Oc3ccnc(-c4ncc(C(F)(F)F)[nH]4)c3)ccc21 [CHIR265] (first compound 0.2 µM, partner dose 0.08 µM)",22000,319,185,3330,91.4,63.1,–,111,86.9,156,57.5,83.3,94.8,152,206,153,162,184,51,131
"Nc1ncn([C@H]2C[C@H](O)[C@@H](CO)O2)c(=O)n1 [decitabine] + CC(=O)c1c(C)c2cnc(Nc3ccc(N4CCNCC4)cn3)nc2n(C2CCCC2)c1=O [palbociclib] (first compound 0.1 µM, partner dose 0.04 µM)",67.1,182,178,61.5,76.9,41.2,–,109,113,132,97.7,64.7,124,236,133,96,134,39.5,141,91.4
"O=C(O)[C@@H]1[O][Sb](=[O])([O][Sb]2(=[O])[O][C@H]([C@H](O)CO)[C@H](O)[C@H](C(=O)O)[O]2)[O][C@H]([C@H](O)CO)[C@@H]1O (some centres not stated) [stibogluconate] + Clc1ccc(Nc2nnc(Cc3ccncc3)c3ccccc23)cc1 [vatalanib] (first compound 2 µM, partner dose 2 µM)",76.5,49.4,134,32.9,148,100,–,90,298,109,78.6,117,209,47.4,91.8,127,133,165,54.9,65
"Cn1c(=O)n(-c2ccc(C(C)(C)C#N)cc2)c2c3cc(-c4cnc5ccccc5c4)ccc3ncc21 + OCc1c[nH]c2ccccc12 [Indole-3-carbinol] (first compound 0.004 µM, partner dose 0.8 µM)",123,115,73.8,219,312,87.4,–,97.7,143,109,82,186,67.6,129,248,153,58.1,99.9,142,86.8
"CCCS(=O)(=O)Nc1ccc(F)c(C(=O)c2c[nH]c3ncc(Cl)cc23)c1F + CC(C)(C)c1cnc(CSc2cnc(NC(=O)C3CCNCC3)s2)o1 [SNS-032] (first compound 0.08 µM, partner dose 0.01 µM)",169,90.6,59.1,477,85.5,57.5,93.1,102,68.6,93.2,68.5,73.4,168,68.4,74.6,331,77.5,184,39.9,–
